## Assay results

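Selective DUX4 reporter inhibition in doxycycline-induced 293T-iDUX4 cells, scored as Gaussia percent activity minus Italica percent activity, after a 24-hour treatment. The test concentration is not given here. Percent difference between the Gaussia and Italica channels; more negative values mean more selective suppression of the DUX4 reporter, and higher values mean less activity.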

Values are in %. How 0% and 100% were set is not given here. Common to all entries: measured here: selective DUX4 reporter inhibition. This is a side read-out of the assay, for part of the compounds, not drawn at random.

structure,Gaussia minus Italica difference (%)
COc1ccc(CN2CC3(CN(S(=O)(=O)c4ccc(C)cc4)C3)c3c([nH]c4cc(OC)ccc34)[C@H]2CO)cc1,-1.656
CCC(=O)N1CC2(C1)[C@H](c1ccccc1)[C@H](CO)N2Cc1cccc(Cl)c1,-9.51
Cc1ccc(S(=O)(=O)N2CC[C@H]3[C@@H](CO)N(C)c4ccc(-c5ccccc5F)cc4[C@H]32)cc1,-19.08
O=C(Cc1ccccn1)N1CC(=O)N2[C@H](CO)[C@@H](c3ccc(C#CCC4CCCC4)cc3)[C@@H]2C1,-4.873
COc1cc(CN2C[C@@H]3N[C@H](C2)C3c2ccc(/C=C/c3ccccc3)cc2)cc(OC)c1 (stereo partly specified),2.17
COc1ccc(C#Cc2ccc([C@@H]3[C@H](CO)N4CCCCN(C(=O)Nc5ccccc5F)C[C@@H]34)cc2)cc1,0.5493
COc1ccc(NC(=O)N2CC[C@@H]3[C@H]2c2cc(-c4ccc(F)cc4)ccc2N(C)[C@H]3CO)cc1,27.66
CCC(=O)Nc1ccc2c(c1)OC[C@@H](C)N(Cc1ccccc1F)C[C@H](C)[C@H](OC)CN(C)C2=O,-9.581
COc1ccc(CN2CC3(CCN(C(=O)Cc4ccncc4)CC3)c3c([nH]c4cc(OC)ccc34)[C@@H]2CO)cc1,-10.63
C[C@H](CO)N1C[C@H](C)[C@@H](CN(C)C(=O)[C@H](C)c2ccccc2)OCc2ccccc2-c2ccccc2C1=O,-8.2
CC(C)CC#Cc1ccc([C@H]2[C@H](CO)N3C(=O)CN(C(=O)NC4CCCCC4)C[C@@H]23)cc1,-24.19
C[C@H](CO)N1C[C@H](C)[C@@H](CN(C)S(=O)(=O)c2ccc([N+](=O)[O-])cc2)OCc2ccccc2-c2c(n(C)c3ccccc23)C1=O,-15.82
COc1ccc2c3c(n(C)c2c1)[C@H](CO)N(Cc1ccccc1F)CC31CCN(CC2CC2)CC1,-1.705
O=C(C[C@H]1CC[C@H]2[C@@H](COC[C@@H](O)CN2Cc2cc(F)ccc2F)O1)NCc1ccc(Oc2ccccc2)cc1,-7.467
N#C[C@H]1[C@@H](c2ccccc2-c2ccc(F)cc2)[C@@H](CO)N1C(=O)Cc1ccccc1,0.2442
COc1ccccc1CN1C[C@@H]2N[C@H](C1)C2c1ccc(-c2ccccc2OC)cc1 (stereo partly specified),1.642
COC(=O)C[C@@H]1CC[C@@H]2[C@@H](COc3ccc(NC(=O)Nc4cccc(C#N)c4)cc3C(=O)N2C)O1,-3.646
COCC(=O)N1CC2(C1)CN(Cc1ccccc1F)[C@@H](CO)c1[nH]c3cc(OC)ccc3c12,-17.47
COc1ccccc1C#Cc1ccc2c(c1)[C@@H]1[C@@H](CCN1C(=O)c1ccccc1)[C@@H](CO)N2,-22.04
CCC(=O)N1CC(=O)N2[C@H](CO)[C@@H](c3ccc(-c4ccc(C#N)cc4)cc3)[C@@H]2C1,-4.221
COc1ccc2c3c(n(C)c2c1)[C@H](CO)N(CC1CC1)CC31CN(C(=O)c2ccccc2)C1,-20.38
COc1cccc(C(=O)Nc2ccc3c(c2)OC[C@@H](C)N(CCc2ccccc2)C[C@H](C)[C@H](OC)CN(C)C3=O)c1,-14.69
COc1ccccc1CNC(=O)C[C@H]1C[C@H]2c3cc(NC(=O)c4cccnc4)ccc3O[C@H]2[C@H](CO)O1,-10.74
O=C(Nc1cccc(F)c1)N1CCCCN2[C@@H](CO)[C@@H](c3ccc(C#CC4CC4)cc3)[C@@H]2C1,7.251
O=S(=O)(c1ccc(F)cc1)N1CC[C@@H]2[C@H](CO)Nc3ccc(-c4ccccc4F)cc3[C@@H]21,1.163
O=C(Nc1cc(F)ccc1F)N1CCCCN2[C@@H](CO)[C@@H](c3ccc(C4=CCCCC4)cc3)[C@@H]2C1,22.63
CCC(=O)N1CC2(CCN(Cc3ccc(Cl)cc3)CC2)c2c([nH]c3cc(OC)ccc23)[C@H]1CO,10.29
C[C@@H]1CN([C@H](C)CO)C(=O)c2c(c3ccccc3n2C)-c2ccccc2CO[C@H]1CN(C)S(=O)(=O)c1ccccc1F,-8.702
CCC(=O)N1CC2(C1)CN(Cc1ccccc1Cl)[C@@H](CO)c1[nH]c3cc(OC)ccc3c12,2.919
COc1ccc2c3c([nH]c2c1)[C@H](CO)N(C(=O)Nc1ccc(F)cc1)CC31CN(Cc2cc(F)ccc2F)C1,-9.741
O=C(c1cccc(F)c1)N1CCCCN2[C@H](CO)[C@H](c3ccc(/C=C/c4ccccc4)cc3)[C@H]2C1,-17.62
CCC(=O)N1CCC2(CC1)CN(Cc1cc(F)ccc1F)[C@@H](CO)c1[nH]c3cc(OC)ccc3c12,-7.796
CCC(=O)N1CC2(C1)CN(Cc1cccc(Cl)c1)[C@@H](CO)c1c2c2ccc(OC)cc2n1C,-7.008
COc1ccc(-c2ccc3c(c2)[C@@H]2[C@@H](CCN2S(=O)(=O)c2ccc(OC)cc2)[C@H](CO)N3)cc1,27.62

The last 3 entries again:

* CCC(=O)N1CCC2(CC1)CN(Cc1cc(F)ccc1F)[C@@H](CO)c1[nH]c3cc(OC)ccc3c12 : Gaussia minus Italica difference -7.796%
* CCC(=O)N1CC2(C1)CN(Cc1cccc(Cl)c1)[C@@H](CO)c1c2c2ccc(OC)cc2n1C : Gaussia minus Italica difference -7.008%
* COc1ccc(-c2ccc3c(c2)[C@@H]2[C@@H](CCN2S(=O)(=O)c2ccc(OC)cc2)[C@H](CO)N3)cc1 : Gaussia minus Italica difference 27.62%

Source: PubChem BioAssay AID1224904 (Broad Institute, 2016).